Here are results for two substances from PMC5813027.

Amino acid sequences for entries named in this document (tags omitted).
UniProt P33176: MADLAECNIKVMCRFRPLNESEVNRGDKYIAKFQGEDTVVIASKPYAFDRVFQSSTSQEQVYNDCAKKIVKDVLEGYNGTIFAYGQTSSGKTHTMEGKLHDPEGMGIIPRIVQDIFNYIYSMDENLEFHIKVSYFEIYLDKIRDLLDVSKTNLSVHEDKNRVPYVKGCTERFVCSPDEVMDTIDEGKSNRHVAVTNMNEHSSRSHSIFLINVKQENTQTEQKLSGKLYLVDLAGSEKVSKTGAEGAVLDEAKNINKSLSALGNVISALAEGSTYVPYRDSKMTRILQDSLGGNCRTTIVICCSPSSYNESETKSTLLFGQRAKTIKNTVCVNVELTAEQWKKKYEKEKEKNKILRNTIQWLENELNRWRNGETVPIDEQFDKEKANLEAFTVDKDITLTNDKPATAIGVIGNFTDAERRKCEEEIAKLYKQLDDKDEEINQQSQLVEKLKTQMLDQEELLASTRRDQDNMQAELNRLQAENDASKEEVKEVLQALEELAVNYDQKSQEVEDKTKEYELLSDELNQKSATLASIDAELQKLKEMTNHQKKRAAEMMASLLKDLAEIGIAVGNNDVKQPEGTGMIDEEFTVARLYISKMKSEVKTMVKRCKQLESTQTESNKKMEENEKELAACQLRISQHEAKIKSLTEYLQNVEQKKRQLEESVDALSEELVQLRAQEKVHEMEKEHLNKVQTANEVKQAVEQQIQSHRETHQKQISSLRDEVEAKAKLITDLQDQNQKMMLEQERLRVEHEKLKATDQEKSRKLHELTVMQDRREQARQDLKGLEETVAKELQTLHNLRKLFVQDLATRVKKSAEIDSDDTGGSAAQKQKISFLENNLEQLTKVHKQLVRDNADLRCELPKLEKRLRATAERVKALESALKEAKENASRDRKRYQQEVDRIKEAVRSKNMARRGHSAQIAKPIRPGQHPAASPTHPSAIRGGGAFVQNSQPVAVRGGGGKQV

Results are given in words; binding and its absence hold for the method and conditions named. In cells and extracts the contact can be indirect. Here binding means that the protein was enriched with, or labelled near, the bait; the list need not be complete.

The target in this assay is T1, CCDC28B overexpressed from pCS2+_CCDC28B (human) (UniProt Q9BUN5).
T1 sequence: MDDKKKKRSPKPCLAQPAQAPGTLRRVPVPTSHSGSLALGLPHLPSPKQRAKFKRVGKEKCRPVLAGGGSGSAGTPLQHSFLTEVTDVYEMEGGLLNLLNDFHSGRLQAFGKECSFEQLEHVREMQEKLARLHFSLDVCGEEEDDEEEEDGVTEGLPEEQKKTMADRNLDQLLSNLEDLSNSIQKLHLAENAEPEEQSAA
The assay is described as follows: affinity purification with mass spectrometry; Hek293 transfected with pCS2+_CCDC28B; biotinylated anti-CCDC28B VHH on Streptavidin-Agarose; SDS-PAGE, silver stain, main bands cut and analysed by mass spectrometry; irrelevant VHH as control.

Regarding “kinesin 1 heavy chain KIF5B (from UniProt P33176 1-963)”, the binding entry was “binds”.

With “α/β-tubulin (human (endogenous in Hek293)) (complex)”, the binding entry was “binds”.
